# Data as given in PubChem BioAssay AID1159579 (Peter MacCallum Cancer Centre, 2015).
# Assay: 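Find genes whose silencing alters migration of lymphatic endothelial cells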 (follow-up of hits)
# Cell system: human dermal lymphatic endothelial cells
# Reagents: single siRNA against human genes, 25 nM
# Measured: 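Scratch wound imaging measuring area filled by moving cells plus nuclei number, averaged over two wells and scaled to mock-transfected controls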
# Reading the numbers: migration relative to mock: higher = more migration into the scratch; mean nuclei count: higher = more cells remaining
# Call rule: 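Called active when the migration ratio is 0.6 or lower (impaired) or 1.3 or higher (accelerated), but inactive whenever the mean nuclei count falls under 3300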
# Meaning of the calls: active = migration changed (impaired or accelerated); inactive = no migration change, or too few cells
# This is one part, drawn at random, of about 2,000 reagents tested. Over the whole deposit, 549 (27%) are marked active. 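Some migration ratios are negative; siRNAs with too few cells are inactive whatever their migration ratio.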 A number with no mark means an inactive call. The numbers tell different reagents against one gene apart. Not given: the time to read-out.
target,reagent no.,migration relative to mock,migration and cell number class,mean nuclei count
APOBEC3A,1,0.8,no change in migration or cell number,7283
APOBEC3A,2,0.5 (active),migration reduced,5040
APOBEC3A,3,0.78,no change in migration or cell number,6080
APOBEC3A,4,1.17,no change in migration or cell number,7494
CAMK1,1,0.58 (active),migration reduced,5975
CAMK1,2,0.91,no change in migration or cell number,5986
CAMK1,3,0.93,no change in migration or cell number,5280
CAMK1,4,0.84,no change in migration or cell number,6386
NCS1,1,0.74,no change in migration or cell number,5669
NCS1,2,0.75,no change in migration or cell number,6624
NCS1,3,0.63,no change in migration or cell number,5904
NCS1,4,1.17,no change in migration or cell number,6138
PDGFRB,1,0.46 (active),migration reduced,5246
PDGFRB,2,0.24 (active),migration reduced,4655
PDGFRB,3,0.6 (active),migration reduced,4624
PDGFRB,4,1.06,no change in migration or cell number,6316
DISC1,1,0.9,no change in migration or cell number,5190
DISC1,2,1.12,no change in migration or cell number,5963
DISC1,3,1.06,no change in migration or cell number,6778
DISC1,4,0.69,no change in migration or cell number,5822
EVX2,1,0.92,no change in migration or cell number,5625
EVX2,2,1.08,no change in migration or cell number,5843
EVX2,3,0.91,no change in migration or cell number,5330
EVX2,4,0.7,no change in migration or cell number,5699
MST1R,1,0.68,no change in migration or cell number,6656
MST1R,2,0.74,no change in migration or cell number,5918
MST1R,3,0.75,no change in migration or cell number,6050
MST1R,4,0.57 (active),migration reduced,5165
CALM2,1,0.86,no change in migration or cell number,5610
CALM2,2,0.38 (active),migration reduced,3915
CALM2,3,0.97,no change in migration or cell number,4690
CALM2,4,0.44 (active),migration reduced,3494
C1orf87,1,0.46 (active),migration reduced,4854
C1orf87,2,0.78,no change in migration or cell number,4984
C1orf87,3,0.95,no change in migration or cell number,5083
C1orf87,4,-0.18,too few cells; migration not scored,2916
MAPK11,1,0.72,no change in migration or cell number,6792
MAPK11,2,0.53 (active),migration reduced,6524
MAPK11,3,0.66,no change in migration or cell number,5495
MAPK11,4,0.78,no change in migration or cell number,6794
UPK3A,1,0.56 (active),migration reduced,5174
UPK3A,2,0.83,no change in migration or cell number,6545
UPK3A,3,0.93,no change in migration or cell number,6262
UPK3A,4,0.86,no change in migration or cell number,5877
SLC31A2,1,0.54 (active),migration reduced,7126
SLC31A2,2,0.96,no change in migration or cell number,5788
SLC31A2,3,0.42 (active),migration reduced,6155
SLC31A2,4,-1.41,too few cells; migration not scored,1488
SEMA4C,1,0.78,no change in migration or cell number,5885
SEMA4C,2,0.98,no change in migration or cell number,5658
SEMA4C,3,0.91,no change in migration or cell number,5191
SEMA4C,4,0.96,no change in migration or cell number,4759
CARD10,1,0.6 (active),migration reduced,4363
CARD10,2,0.14 (active),migration reduced,4800
CARD10,3,0.58 (active),migration reduced,5608
CARD10,4,0.94,no change in migration or cell number,6529
EPHA7,1,0.58 (active),migration reduced,6944
EPHA7,2,0.82,no change in migration or cell number,6276
EPHA7,3,-0.66,too few cells; migration not scored,1137
EPHA7,4,0.69,no change in migration or cell number,5582
RMDN1,1,0.83,no change in migration or cell number,5746
RMDN1,2,1.04,no change in migration or cell number,6386
RMDN1,3,0.74,no change in migration or cell number,4084
RMDN1,4,1.04,no change in migration or cell number,5588
SPATA46,1,1.05,no change in migration or cell number,5069
SPATA46,2,1.05,no change in migration or cell number,6209
SPATA46,3,0.56 (active),migration reduced,5648
SPATA46,4,0.7,no change in migration or cell number,5412

Limited to “migration and cell number class” (8 entries from above):
EVX2 #1	no change in migration or cell number
EVX2 #2	no change in migration or cell number
EVX2 #3	no change in migration or cell number
EVX2 #4	no change in migration or cell number
MST1R #1	no change in migration or cell number
MST1R #2	no change in migration or cell number
MST1R #3	no change in migration or cell number
MST1R #4	migration reduced (active)
